Data published in patent US6476188.
These are yes or no findings as the source states them, for the method shown. In cells and extracts the contact can be indirect. Some entries that bind do so weakly or less than the wild type.

Amino acid sequences for entries named in this document (tags omitted). A change or cut given only in a name is not applied to a line headed by its entry.
UniProt O76324: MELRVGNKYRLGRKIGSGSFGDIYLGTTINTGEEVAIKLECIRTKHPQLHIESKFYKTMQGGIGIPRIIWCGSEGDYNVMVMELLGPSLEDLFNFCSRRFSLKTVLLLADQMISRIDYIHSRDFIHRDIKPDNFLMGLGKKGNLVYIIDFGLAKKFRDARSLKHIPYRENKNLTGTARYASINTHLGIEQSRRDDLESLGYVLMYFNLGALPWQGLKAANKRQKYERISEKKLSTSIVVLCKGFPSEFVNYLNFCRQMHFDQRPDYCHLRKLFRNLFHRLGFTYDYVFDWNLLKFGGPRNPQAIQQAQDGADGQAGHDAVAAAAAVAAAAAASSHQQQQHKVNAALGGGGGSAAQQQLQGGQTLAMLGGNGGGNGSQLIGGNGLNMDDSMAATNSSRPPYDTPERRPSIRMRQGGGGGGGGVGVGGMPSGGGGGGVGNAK

Experiments:
[1] = molecular target: PERIOD (PER) protein, Drosophila, expressed in S2 cells from hs-per (Drosophila) (UniProt P07663); test: summary of the GST pull-down and of the co-immunoprecipitation from S2 cells
[2] = molecular target: GST-PER 1-365 fusion protein (Drosophila) (UniProt P07663); test: GST pull-down, 35S-labeled in vitro translated DBT, SDS-PAGE and autoradiography (FIG. 13A)
[3] = molecular target: GST-PER 1-365 fusion protein (Drosophila) (UniProt P07663); test: GST pull-down on glutathione agarose beads, 35S-labeled in vitro translated DBT, SDS-PAGE and autoradiography
[4] = molecular target: GST-PER 1-640 fusion protein (Drosophila) (UniProt P07663); test: as above
[5] = molecular target: PERIOD (PER) protein, Drosophila, expressed in S2 cells from hs-per (Drosophila) (UniProt P07663); test: co-immunoprecipitation with anti-GFP antibodies from S2 cell extracts, PER detected by Western analysis
[6] = molecular target: PERIOD (PER) protein, Drosophila, expressed in S2 cells from hs-per (Drosophila) (UniProt P07663); test: co-immunoprecipitation with anti-GFP antibodies from S2 cells, PER detected by Western analysis (FIG. 13B-13C)

Measured: binding

DOUBLETIME protein (DBT), Drosophila, in vitro translated from dbt cDNA P12, 35S-labeled (from UniProt O76324 1-440) (enzyme)
binds: [1] | [2] | [3] | [4]

Green Fluorescent Protein (GFP)-DBT fusion protein expressed in S2 Drosophila cells (from UniProt O76324 1-440)
binds: [5] | [6]
